# Laboratory results as given in PubChem BioAssay AID1259354 (Paczesny and Yang Labs, IUPUI and University of Michigan, 2018).
# Protein sequences, listed by entry. Tags and fused reporters are not part of them. Lines headed by an entry give the natural chain unless they say otherwise; changes in a name come on top.
# UniProt Q01638: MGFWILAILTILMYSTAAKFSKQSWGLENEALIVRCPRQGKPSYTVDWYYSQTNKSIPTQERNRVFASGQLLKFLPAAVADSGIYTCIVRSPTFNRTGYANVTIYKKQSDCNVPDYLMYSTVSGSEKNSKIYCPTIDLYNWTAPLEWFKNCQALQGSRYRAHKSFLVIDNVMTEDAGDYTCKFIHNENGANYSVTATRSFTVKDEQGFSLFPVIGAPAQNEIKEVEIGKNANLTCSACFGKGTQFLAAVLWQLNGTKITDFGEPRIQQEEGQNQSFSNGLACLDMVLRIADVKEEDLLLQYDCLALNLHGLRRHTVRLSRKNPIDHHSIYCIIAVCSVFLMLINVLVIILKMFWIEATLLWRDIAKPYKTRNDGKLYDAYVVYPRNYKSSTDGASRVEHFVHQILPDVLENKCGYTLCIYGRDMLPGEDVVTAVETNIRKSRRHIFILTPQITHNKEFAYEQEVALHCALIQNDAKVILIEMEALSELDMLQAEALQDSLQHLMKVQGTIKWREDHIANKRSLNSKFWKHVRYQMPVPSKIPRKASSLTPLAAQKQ
# In all, about 78,000 compounds went through this assay and about 1,800 (2.3%) were called active. This list was built around the results that the source calls inconclusive (neither active nor inactive); the mix of calls is not that of the screen. Rule as the data show it: active = inhibition above about 30%; inconclusive = mostly about 10% to 28%; inactive = weaker than that.
# Target: Interleukin-1 receptor-like 1 (Homo sapiens) (UniProt Q01638)
# Test: blocks human ST2 binding to IL-33, primary screen, biochemical, AlphaLISA (AID 1259354)
# Conditions: AlphaLISA ST2-Fc/biotin-IL-33 interaction, 1 h; at 17 µM, stronger effect = higher value
row,SMILES,inhibition
1,COc1ccc(F)c(-c2nc(OC)cc(OC)n2)c1,inconclusive: 10%
2,O=C1NCCN(C(=O)c2ccc(-c3ccco3)cc2)C1Cc1ccccc1 (centres undefined),inconclusive: 23%
3,CC1Cc2ccccc2N1C(=O)C1CCC(CNS(=O)(=O)c2cccc3nsnc23)CC1 (centres undefined),inconclusive: 10%
4,CC1(C)C(=O)OC(c2cccc([N+](=O)[O-])c2)C(C)(C)C1=O (centres undefined),inconclusive: 15%
5,COc1ccc(NC(=O)c2cnc3scc(C)n3c2=O)cc1OC,inactive
6,Cc1ccc(-c2ccc(CCC(=O)O)o2)cc1,inconclusive: 20%
7,O[C@@H]1C[C@@H](c2nc(-c3ccc(OC(F)(F)F)cc3)no2)N(Cc2ccc(-c3ccccn3)cc2)C1,inconclusive: 16%
8,Cc1ccc(-c2noc([C@@H]3C[C@@H](O)CN3Cc3ccc(Cl)cc3)n2)cc1F,inconclusive: 12%
9,C=C(S(=O)(=O)c1ccc(C)cc1)S(=O)(=O)c1ccc(C)cc1,inconclusive: 14%
10,CCOc1ccc(-c2ncnn2-c2ccc(Cl)cc2)cc1,inconclusive: 14%
11,O=[N+]([O-])c1ccccc1S(=O)(=O)NCCCCNS(=O)(=O)c1ccccc1[N+](=O)[O-],inconclusive: 11%
12,CN(C)c1ncccc1CNC(=O)Nc1cccc(F)c1,inconclusive: 14%
13,N#CC1=C(N)OC2=C(C(=O)CCC2)C1CCc1ccccc1 (centres undefined),inconclusive: 10%
14,COc1ccc(-c2nc(SC3CC(=O)N(c4ccc([N+](=O)[O-])cc4)C3=O)n[nH]2)cc1 (centres undefined),inactive
15,CCCN1C[C@H](CSC)C[C@@H]2c3cccc4[nH]cc(c34)C[C@H]21,inconclusive: 23%
16,c1ccc(-n2nccc2CN2CCc3[nH]cnc3C2c2cccnc2)cc1 (centres undefined),inconclusive: 13%
17,CC(C)CCNS(=O)(=O)c1ccc2c(c1)C(=O)c1cc(S(=O)(=O)NCCC(C)C)ccc1-2,active: 36%
18,O=C(/C=C/c1ccncc1)NC1CCCN(Cc2ccc(Cl)cc2)C1 (centres undefined),inconclusive: 20%
19,Cc1ccc(S(=O)(=O)N2CCCCC2C(=O)N2CCCCCC2)cc1 (centres undefined),inactive
20,O=C(CO)Nc1cccc(NC(=O)CO)n1,inactive
21,Cc1ccc(-c2csc3ncn(CC(=O)NCc4ccccc4)c(=O)c23)cc1C,inconclusive: 12%
22,CC(C)n1cnc2cc(NCc3ccncc3)ccc21,inconclusive: 14%
23,Cc1cccc(-c2cn[nH]c2C2CCN(C(=O)C3=NNC(=O)CC3)CC2)c1,inactive
24,COC(=O)c1sc2ccccc2c1NC(C)=O,inactive

row,SMILES,inhibition
1,Cc1nc(C2CC2)ncc1C(=O)N1C[C@@H]2CC[C@H]1C2,inactive
2,COc1cc(C)c(S(=O)(=O)N2CCN(c3nc(C)cc(Nc4ccccc4)n3)CC2)cc1C,inconclusive: 11%
3,Cc1ccc2nc([C@H]3CCN(S(C)(=O)=O)C3)[nH]c2c1,inconclusive: 11%
4,O=C1NCCN(Cc2cccs2)C1CC(=O)N1CCCCCC1 (centres undefined),inactive
5,Cc1ccc2nc(Cl)c(CC3CC(c4ccccc4)=NN3C(=O)CCCC(=O)O)cc2c1 (centres undefined),inconclusive: 21%
6,COc1cccc(/C=C2/SC(=Nc3ccccc3)NC2=O)c1OC,inactive
7,O=C(Nc1ccc(F)cc1)Nc1cccc(Br)c1,inconclusive: 10%
8,CSCCC(=O)N1CCCC(N2CCN(c3cccc(C(F)(F)F)c3)CC2)C1 (centres undefined),inconclusive: 16%
9,CC(=O)NCCc1c[nH]c2ccc([N+](=O)[O-])cc12,inactive
10,COc1ccc2oc(=O)c(NC(=O)c3ccc(Cl)cc3)cc2c1,inactive
11,Cc1ccccc1NC(=O)c1cnc2n(c1=O)CCS2,inactive
12,COc1ccc(CCN2C(=O)OC(C)(C)C2(C)O)cc1OC (centres undefined),inconclusive: 15%
13,CCCCNC(=O)c1cc2cc3cc(OC)ccc3nc2o1,inconclusive: 19%
14,CCc1cc(C=NCCN=Cc2cc(CC)sc2O)c(O)s1,inconclusive: 26%
15,CCN(C(=O)CCc1nc(-c2ccc(C)cc2)no1)c1ccc(C)c(C)c1,inconclusive: 12%
16,C[C@@H](NC(=O)[C@@H]1C[C@@H](NS(=O)(=O)c2cccs2)CCN1C(=O)c1ccco1)C(N)=O,inconclusive: 13%
17,Cc1cc(NC(=O)c2ccc3c(c2)OCO3)nc2c1c(=O)oc1ccccc12,inactive
18,CC(C)COc1ccc2c(c1)c1c3n2CCNC3CCC1 (centres undefined),inactive
19,Cc1c(NC(=O)c2cccc([N+](=O)[O-])c2)c(=O)n(-c2ccccc2)n1C,inconclusive: 10%
20,Cc1ccc(CN2CCN(Cc3cnc(-c4ccccc4C)nc3)CC2CCO)o1 (centres undefined),inactive
21,CCC(=O)N1CCc2cc(Br)cc(S(=O)(=O)NCCCOC(C)C)c21,inconclusive: 19%
22,C=CCO[C@@H]1CCN2C(=O)c3cc(-c4ccc(F)cc4F)ccc3NC(=O)[C@H]12,inconclusive: 10%
23,c1coc(-c2nc3sc4c(NCCN5CCOCC5)ncnc4c3c3c2CCCC3)c1,inconclusive: 10%
24,COc1ccc(-c2nc3s/c(=C\c4cc(C)c(O)c(C)c4)c(=O)n3n2)cc1,active: 36%

row,SMILES,inhibition
1,COc1ccc(C(=O)N2CCC(C(=O)Nc3cccc(SC)c3)CC2)cc1,inconclusive: 14%
2,COc1ccc(CN2CC3CC4CC2C[C@@H](C4)C3)cc1C(=O)O,inactive
3,COc1ccc(-c2noc(CN3CCN(c4ccccc4F)CC3)n2)cc1,inconclusive: 11%
4,CCNC(=O)c1cc2c(=O)n3ccccc3nc2n(C(C)CC)c1=N (centres undefined),inactive
5,COC1=CC(=C2C=CC(=[N+](C)C)C=C2)Oc2ccccc21,inactive
6,O=C(O)C1C2C=CC3(O2)C1C(=O)N1c2ccccc2C2OCCC2C13 (centres undefined),inconclusive: 10%
7,O=C(NCc1ccncc1)c1ccc(I)cc1,inconclusive: 27%
8,COc1ccc(/C=C/c2ncc3ccccn23)cc1,inconclusive: 15%
9,COc1cc2c(cc1OC)C(C(=O)Nc1ccccc1F)C(c1cccs1)N(C)C2=O (centres undefined),inactive
10,O=C(Cn1c(=O)n(Cc2ccccc2)c(=O)c2ccccc21)NCC1CCCO1 (centres undefined),inactive
11,CCN(CC)C1CC(=O)N(c2ccc(Br)cc2)C1=O (centres undefined),inconclusive: 14%
12,O=C(COc1ccc(Br)cc1)Nc1cccc(O)c1,inactive
13,COc1ccccc1N1CCN(C(=O)CSCc2ccccc2Cl)CC1,inconclusive: 16%
14,O=C(NCC1CCCN(C2CCSCC2)C1)c1ccc(-c2ccccc2)cc1 (centres undefined),inconclusive: 11%
15,CC(=O)CSc1nc2sc3c(c2c(=O)n1-c1ccccc1)CCC3,inconclusive: 27%
16,Cc1ccc(N(C(=O)C(C)C)C2C=CS(=O)(=O)C2)cc1C (centres undefined),inactive
17,Cc1ccc(Nc2nc3nonc3nc2Nc2c(C)n(C)n(-c3ccccc3)c2=O)c(C)c1,inconclusive: 16%
18,Cc1cccc(C2=N/C(=C\c3sccc3C)C(=O)O2)c1,active: 37%
19,COCCn1cc(C(=O)N2CCOCC2)c2c3ccccc3n(C)c2c1=O,inactive
20,O=C(NCCSCc1ccco1)c1ccc(C2SCC(=O)N2Cc2ccccc2)cc1 (centres undefined),inconclusive: 26%
21,CN(C)c1ccc(/C=C2/SC(=Nc3ccccc3)NC2=O)cc1,inconclusive: 20%
22,COc1ccc(OC)c(/C=C2\C(=O)N(c3ccc(Cl)c(C(=O)O)c3)N=C2C)c1,inactive
23,Cc1cc([N+](=O)[O-])nn1CCCC(=O)Nc1sc2c(c1C#N)CCC2,inactive
24,CC[C@]1(O)C[C@H]2CN(CCc3c([nH]c4ccccc34)[C@@](C(=O)OC)(c3cc4c(cc3OC)N(C)C3[C@]45CCN4CC=C[C@@](CC)([C@@H](OC(C)=O)[C@]3(O)C(=O)OC)[C@H]45)C2)C1 (some centres undefined),inconclusive: 10%

row,SMILES,inhibition
1,COc1ccc(C2=CC(=O)Nc3ccccc3S2)cc1,inactive
2,O=C(Nc1cccc(Cl)c1)C1c2ccccc2Oc2ccccc21,inconclusive: 12%
3,Cn1c(SCC(=O)N2CCN(c3ccccc3)CC2)nc2sc3c(c2c1=O)CCCC3,inconclusive: 11%
4,O=C(Cn1nc([N+](=O)[O-])nc1Br)Nc1cccc([N+](=O)[O-])c1,inconclusive: 11%
5,COc1cc(/C=C(\C#N)[N+](=O)[O-])ccc1O,inconclusive: 13%
6,COc1ccc(S(=O)(=O)Nc2cccc(C(C)=O)c2)cc1,inactive
7,O=C(c1ccc2nc3ccccc3c(=O)n2c1)N1CCN(c2ncccn2)CC1,inactive
8,O=C(Nc1ccc2c(c1)OCO2)c1ccc(NS(=O)(=O)c2cccs2)cc1,inactive
9,Cc1ccc2c(c1)c1c3n2CCCNC3CCC1 (centres undefined),inconclusive: 14%
10,CCOc1ccccc1-c1nc(-c2nonc2N)no1,inactive
11,O=C1CC(Sc2ncn[nH]2)C(=O)N1c1ccc(I)cc1 (centres undefined),inconclusive: 15%
12,CCOC(=O)C1=C(N)OC2=C(C(=O)CC(c3ccccc3)C2)C1c1ccc(Br)cc1 (centres undefined),inactive
13,O=C(c1cn(CCN2CCCCC2)nn1)N1CCC(C(O)c2cccs2)CC1 (centres undefined),inactive
14,COC(CNc1cc(N2CCOCC2)nc(N)n1)c1cccs1 (centres undefined),inconclusive: 10%
15,CC1=C(C(=O)Nc2ccccn2)C(c2ccccc2C(F)(F)F)C2=C(CC(C)(C)CC2=O)N1 (centres undefined),inactive
16,O=C(Nc1cc2cccc([N+](=O)[O-])c2oc1=O)c1ccc(F)cc1,inconclusive: 10%
17,Cn1cc(CN2CCC(OCc3cccnc3)CC2)c(-c2ccc(C3CCCCC3)cc2)n1,inactive
18,CC1=C(C(=O)OC2CCCCC2)C(c2ccc(F)cc2)n2nnnc2N1 (centres undefined),inactive
19,CCOc1ccc(C(=O)Nc2ccc(Nc3nc(C)cc(N(C)C)n3)cc2)cc1,inconclusive: 16%
20,CC(=O)Nc1ccc2nc(Nc3nc4c(F)cccc4s3)sc2c1,inconclusive: 10%
21,COc1ccc(C2C(C(=O)N(C)C3CCCCC3)c3cc(OC)c(OC)cc3C(=O)N2C)cc1 (centres undefined),inconclusive: 12%
22,COc1nc(OC)nc(-c2cc(F)ccc2C)n1,inconclusive: 10%
